According to US20180030093A1 (Agency for Science, Technology and Research, priority 2015, published 2018):
Entries after “also recorded” stand apart in the source; their conditions may differ. Non-standard residues stand in square brackets, D forms with d. Residues, ends and D or L forms follow the SMILES beside them.

Legend:
[1] = FESEM morphological characterization of hydrogel scaffolds; settings: freeze-dried hydrogel scaffold
[2] = peptide synthesis; settings: cyclisation step

Compound | morphology by FESEM [1] | difficulty met [2]
CC[C@H](C)[C@@H]1NC(=O)[C@@H](CC(C)C)NC(=O)[C@H](CO)NC(=O)CNC(=O)[C@H](C)NC(=O)[C@@H](C(C)C)NC1=O [cLS6, cLIVAGS] (cyclo([dL]I[dV]AGS)) | fibrillization of cLS6 is clearly visible; also recorded: confirmed a fibre structure | –
cyclo([dL]I[dV]AGS) (SMILES CC[C@H](C)[C@@H]1NC(=O)[C@@H](CC(C)C)NC(=O)[C@H](CO)NC(=O)CNC(=O)[C@H](C)NC(=O)[C@@H](C(C)C)NC1=O) | – | Since solution was cyclization resulted in low yield
